Test results: patent US20150064221A1, “COMPOUNDS HAVING IMMUNOMUDULATOR ACTIVITY” (priority 2012, published 2015)
At least one structure is not confirmed: it was looked up by name or label, or the drawing left a doubt.

Test system: oxazolone-induced hypersensitivity
Test: Oxazolone-induced dermatitis
Assay type: in vivo, mice
[1] = elicitation phase: one hour after second oxazolone exposure
[2] = treated during or before the sensitization phase

C[C@@H]1C[C@H]2[C@@H]3CCC4=CC(=O)C=C[C@]4(C)[C@@]3(F)[C@@H](O)C[C@]2(C)[C@@]1(O)C(=O)CO [dexamethasone, reference compound]
ear thickness [1]: did not affect | ear weight [1]: did not affect | ear thickness [2]: reduced the thickness | ear weight [2]: not the weight
